Common to all, as to assay: pull-down; in vitro pull-down with GST-SPATA2 PUB domain (WT or mutants) against CYLD USP domain variants; both purified
In one assay the target is GST-SPATA2 PUB domain (UniProt Q9UM82).
In assay [1] the target is GST-SPATA2 PUB domain T94K (UniProt Q9UM82).
The target of assay [2] is GST-SPATA2 PUB domain T115N (UniProt Q9UM82).
For assay [3], the target named is GST-SPATA2 PUB domain Y114A (UniProt Q9UM82).
Assay [4] has as its target GST-SPATA2 PUB domain N98A (UniProt Q9UM82).
Assay [5] has as its target GST-SPATA2 PUB domain T115A (UniProt Q9UM82).

By UniProt entry, the sequences of proteins in these tests, tags left out. Where a name states a change or a piece, a line headed by the entry shows the natural chain unless it says otherwise.
UniProt Q9UM82: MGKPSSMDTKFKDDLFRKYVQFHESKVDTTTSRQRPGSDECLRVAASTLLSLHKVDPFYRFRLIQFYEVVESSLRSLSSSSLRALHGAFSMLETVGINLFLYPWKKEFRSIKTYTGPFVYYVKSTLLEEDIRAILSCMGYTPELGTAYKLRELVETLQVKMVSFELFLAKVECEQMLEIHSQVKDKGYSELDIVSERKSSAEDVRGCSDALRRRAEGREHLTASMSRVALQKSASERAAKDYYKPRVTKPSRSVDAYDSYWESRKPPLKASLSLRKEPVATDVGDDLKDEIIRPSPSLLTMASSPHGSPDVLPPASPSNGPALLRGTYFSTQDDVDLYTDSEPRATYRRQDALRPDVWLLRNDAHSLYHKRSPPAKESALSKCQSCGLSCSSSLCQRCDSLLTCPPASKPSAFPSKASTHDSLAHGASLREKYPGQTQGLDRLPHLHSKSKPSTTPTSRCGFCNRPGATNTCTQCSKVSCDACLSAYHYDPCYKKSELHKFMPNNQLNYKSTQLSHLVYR

No constants are given. Whether binding was seen depends on the method and setting. Binding calls can cover weak binding; strength is not graded here.

In paper PMC5031558 one finds binding data, which are given here for 2 molecules.

B1: CYLD B-box domain (aa 778–855) (domain or fragment, UniProt Q9NQC7 778-855)
chain: TDLLEDTPRQCRICGGLAMYECRECYDDPDISAGKIKQFCKTCNTQVHLHPKRLNHKYNPVSLPKDLPDWDWRHGCIP
modifications: 15N-labelled in the NMR titration
Regarding B1, in the assay with GST-SPATA2 PUB domain, the binding result is recorded as “no binding”.

B2: CYLD USP domain (aa 583–956) (domain or fragment, UniProt Q9NQC7 583-956)
chain: GLEIMIGKKKGIQGHYNSCYLDSTLFCLFAFSSVLDTVLLRPKEKNDVEYYSETQELLRTEIVNPLRIYGYVCATKIMKLRKILEKVEAASGFTSEEKDPEEFLNILFHHILRVEPLLKIRSAGQKVQDCYFYQIFMEKNEKVGVPTIQQLLEWSFINSNLKFAEAPSCLIIQMPRFGKDFKLFKKIFPSLELNITDLLEDTPRQCRICGGLAMYECRECYDDPDISAGKIKQFCKTCNTQVHLHPKRLNHKYNPVSLPKDLPDWDWRHGCIPCQNMELFAVLCIETSHYVAFVKYGKDDSAWLFFDSMADRDGGQNGFNIPQVTPCPEVGEYLKMSLEDLHSLDSRRIQGCARRLLCDAYMCMYQSPTMSLYK
Regarding B2, the binding result (in assay [1]; in assay [2]; in the assay with GST-SPATA2 PUB domain; in assay [3]; in assay [4]; in assay [5]) was “binds” in each case.
